{"sequences": {"note": "Chains of the proteins cited; added tags and fusions are not shown.", "UniProt Q96CV9": "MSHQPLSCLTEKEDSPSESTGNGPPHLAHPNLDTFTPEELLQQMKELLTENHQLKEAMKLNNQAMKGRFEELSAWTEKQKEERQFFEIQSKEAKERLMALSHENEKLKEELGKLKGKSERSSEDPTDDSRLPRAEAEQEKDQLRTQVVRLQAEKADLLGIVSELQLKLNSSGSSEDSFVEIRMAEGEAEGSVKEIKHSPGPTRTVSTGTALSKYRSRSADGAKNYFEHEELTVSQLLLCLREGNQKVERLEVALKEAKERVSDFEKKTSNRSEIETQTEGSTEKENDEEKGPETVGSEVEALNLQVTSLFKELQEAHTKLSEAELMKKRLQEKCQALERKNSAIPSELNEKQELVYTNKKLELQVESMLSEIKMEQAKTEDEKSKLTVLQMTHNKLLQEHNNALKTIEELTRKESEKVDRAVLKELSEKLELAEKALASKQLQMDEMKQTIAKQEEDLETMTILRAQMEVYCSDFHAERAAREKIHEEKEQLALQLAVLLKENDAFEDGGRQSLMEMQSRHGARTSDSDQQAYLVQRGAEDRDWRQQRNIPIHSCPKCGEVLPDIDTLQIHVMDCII"}, "source": "paper PMC12677614", "binders": {"B1": {"name": "MID1 in cells (protein, UniProt O15344 1-667)", "chain": "METLESELTCPICLELFEDPLLLPCAHSLCFNCAHRILVSHCATNESVESITAFQCPTCRHVITLSQRGLDGLKRNVTLQNIIDRFQKASVSGPNSPSETRRERAFDANTMTSAEKVLCQFCDQDPAQDAVKTCVTCEVSYCDECLKATHPNKKPFTGHRLIEPIPDSHIRGLMCLEHEDEKVNMYCVTDDQLICALCKLVGRHRDHQVAALSERYDKLKQNLESNLTNLIKRNTELETLLAKLIQTCQHVEVNASRQEAKLTEECDLLIEIIQQRRQIIGTKIKEGKVMRLRKLAQQIANCKQCIERSASLISQAEHSLKENDHARFLQTAKNITERVSMATASSQVLIPEINLNDTFDTFALDFSREKKLLECLDYLTAPNPPTIREELCTASYDTITVHWTSDDEFSVVSYELQYTIFTGQANVVSLCNSADSWMIVPNIKQNHYTVHGLQSGTKYIFMVKAINQAGSRSSEPGKLKTNSQPFKLDPKSAHRKLKVSHDNLTVERDESSSKKSHTPERFTSQGSYGVAGNVFIDSGRHYWEVVISGSTWYAIGLAYKSAPKHEWIGKNSASWALCRCNNNWVVRHNSKEIPIEPAPHLRRVGILLDYDNGSIAFYDALNSIHLYTFDVAFAQPVCPTFTVWNKCLTIITGLPIPDHLDCTEQLP"}}, "target": "OPTN, Flag-tagged, overexpressed (UniProt Q96CV9)", "experiment": "affinity purification with mass spectrometry; OPTN overexpressed in HEK293 cells, Co-IP, mass spectrometry; combined with quantitative proteomics of SL-treated LN-229 cells to pick the top ten candidates", "note": "Results are given in words; binding and its absence hold for the method and conditions named. In cells and extracts the contact can be indirect. Here binding means that the protein was enriched with, or labelled near, the bait; the list need not be complete.", "data": [{"binder": "B1", "values": [{"measurement": "binding", "value": "binds"}]}]}
